PubChem BioAssay AID1671190 (National Center for Advancing Translational Sciences (NCATS), 2021)
Several values for one entry are separate records, joined by “and”; a condition that tells them apart may be missing. Equal entries are not always repeated. Among all 580,000 compounds or so, about 6,100 (1.1%) were called active. Inconclusive means that the source gave no clear call. Such entries were picked first, then a sample of the others. The call rests on the fitted dose curve; in most records, active means well fitted inhibition curve with a large enough effect; inconclusive means small, poorly fitted or top-dose-only effect, or another doubt; inactive means no such curve, though single readings can be large or run the other way. Where the call is inconclusive, the potency comes from a doubtful curve fit.

Sequences of proteins named here, by UniProt entry; tags and fusion partners are left off. A change or cut given only in a name is not applied to a line headed by its entry.
UniProt P18054: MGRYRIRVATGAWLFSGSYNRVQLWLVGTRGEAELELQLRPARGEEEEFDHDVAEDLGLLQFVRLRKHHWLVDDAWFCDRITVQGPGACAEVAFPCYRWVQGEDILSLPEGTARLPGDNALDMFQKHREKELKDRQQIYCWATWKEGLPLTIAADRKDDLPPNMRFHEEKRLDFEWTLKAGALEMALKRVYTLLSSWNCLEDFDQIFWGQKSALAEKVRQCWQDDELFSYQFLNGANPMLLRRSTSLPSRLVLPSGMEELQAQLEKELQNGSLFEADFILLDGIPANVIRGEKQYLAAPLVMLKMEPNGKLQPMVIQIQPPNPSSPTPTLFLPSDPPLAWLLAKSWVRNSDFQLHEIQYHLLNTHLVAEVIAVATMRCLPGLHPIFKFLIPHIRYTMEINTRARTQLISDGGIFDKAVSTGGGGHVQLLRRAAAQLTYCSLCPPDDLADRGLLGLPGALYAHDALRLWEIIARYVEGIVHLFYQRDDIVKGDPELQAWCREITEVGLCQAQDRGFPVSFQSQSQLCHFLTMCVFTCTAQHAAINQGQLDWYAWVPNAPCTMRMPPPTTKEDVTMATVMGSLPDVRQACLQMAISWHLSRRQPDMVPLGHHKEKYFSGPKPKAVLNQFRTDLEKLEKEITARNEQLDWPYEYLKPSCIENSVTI

target: Polyunsaturated fatty acid lipoxygenase ALOX12 (Homo sapiens) (UniProt P18054); assay: Primary qHTS assay for inhibitors of human arachidonate 12S-lipoxygenase (ALOX12): Round 2; settings: purified 12hLO, xylenol orange hydroperoxide absorbance; activity change, negative = inhibition: at 108 µM (top of the series) unless noted
Method in brief: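 Purified human 12hLO at 150 nM in 25 mM Hepes, 0.01% Triton X-100, pH 7.0, preincubated 15 min at room temperature with compound. Reaction started with 40 uM arachidonic acid, 30 min at room temperature. Hydroperoxide measured by Fe-xylenol orange, 573/405 nm absorbance ratio.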
On the % scale 0 is the no-effect control and ±100 the full control effect; potency means the concentration at half of the fitted maximal effect.

| SMILES | Potency | activity change, negative = inhibition |
| --- | --- | --- |
| O=C(Nc1ccc(Cl)cc1Cl)c1cnn2c1CN(C(=O)c1ccccc1F)CC2 | inconclusive: 89.1 µM [inhibitor, single point] |  |
| COc1cccc(Cn2c(=O)n(CC3CCC(C(=O)N4CCCC4)CC3)c(=O)c3sccc32)c1 (configuration not stated) |  | inactive: -0.0333% |
| OCCN(CC#CC(O)(c1ccccc1)c1ccccc1)CCO | inconclusive: 89.1 µM [inhibitor, single point] |  |
| CCOC(=O)c1sc(=S)n(C)c1NC(=O)c1ccc(F)cc1 | inconclusive: 39.8 µM [inhibitor, partial curve, poor fit] |  |
| Cc1cccc(OCC(=O)Nc2cc(-c3nn(C)c(=O)c4ccccc34)ccc2N2CCOCC2)c1 | inconclusive: 6.31 µM [inhibitor, partial curve, poor fit] |  |
| CC(=O)Nc1ccc(CNc2nc(NCC3CC3)nc3ccsc23)cc1 | inconclusive: 44.7 µM [inhibitor, partial curve, poor fit] |  |
| CN(Cc1ccc(F)cc1)C(=O)c1cccc(Cl)c1 |  | inactive: 40.5% [at 176 µM] |
| CCc1ccc(NC(=O)c2ncoc2-c2cccc(C)c2)cc1 | inconclusive: 0.0794 µM [inhibitor, full curve, poor fit] |  |
| O=C1CS(=O)(=O)C2(C(=O)N(Cc3ccccc3F)c3ccccc32)N1c1ccc(F)c(Cl)c1 (configuration not stated) | inconclusive: 50.1 µM [inhibitor, partial curve, poor fit] |  |
| Cc1cc(C(=O)Nc2ccccc2C(=O)O)oc1C | inconclusive: 31.6 µM [inhibitor, single point] |  |
| C=Cn1cc[n+](CC(=O)c2ccc(Cl)c(Cl)c2)c1 | inconclusive: 89.1 µM [inhibitor, single point] |  |
| N#Cc1ccccc1S(=O)(=O)N1CCN(C(=O)c2cc(-c3ccccc3)nn2-c2ccccc2)CC1 |  | inactive: -13.3% |
| O=C1NCc2ccccc2CC12CCCCN2Cc1ccc(CO)o1 (configuration not stated) |  | inactive: 3.52% [at 6.33 µM] |
| COC(=O)c1sc(NC(=O)c2cccc([N+](=O)[O-])c2)c(C(N)=O)c1C | inconclusive: 35.5 µM [inhibitor, partial curve, poor fit] |  |
| CC(C)(C)NC(=O)CSc1nnc(-c2cccnc2)o1 |  | inactive: 8.46% |
| CC(=O)c1c(C)[nH]c(C(=O)OCC(=O)Nc2ccc(Cl)cc2[N+](=O)[O-])c1C |  | inactive: -0.761% |
| CCC(C)c1ccc(NC(=O)CCc2ncc(-c3ccc(F)cc3)o2)cc1 (configuration not stated) | inconclusive: 44.7 µM [inhibitor, partial curve, poor fit] |  |
| CCN1CCN(C(=O)CN(CC)S(=O)(=O)c2ccc3ccccc3c2)CC1 | inconclusive: 112 µM [inhibitor, single point] |  |
| Cc1cc(C(=O)C(C)Sc2nnnn2C2CCCC2)c(C)n1Cc1ccco1 (configuration not stated) | inconclusive: 39.8 µM [inhibitor, partial curve] |  |
| CC(C)(C)C1=N/C(=C/c2ccc(OC(F)F)cc2)C(=O)O1 |  | inactive: -5.27% |
| O=c1cc(-c2ccc(O)c(O)c2)oc2cc(O)c([C@@H]3O[C@H](CO)[C@@H](O)[C@H](O)[C@H]3O)c(O)c12 | inconclusive: 11.2 µM [inhibitor, full curve] |  |

| SMILES | Potency | activity change, negative = inhibition |
| --- | --- | --- |
| COc1ccccc1N1CCN([C@@H]2[C@H](O)[C@H](CO)O[C@@H]2CN(Cc2ccc(F)cc2)Cc2ccc(F)cc2)CC1 | active: 28.2 µM |  |
| CCCCN(CCCC)c1ccc(C(=O)c2ccccc2C(=O)O)c(O)c1 | inconclusive: 44.7 µM [inhibitor, partial curve, poor fit] |  |
| COC(=O)c1cccc(NC(=O)c2nsc3ccccc23)c1 | inconclusive: 31.6 µM [inhibitor, partial curve] |  |
| COc1ccc(NS(=O)(=O)c2ccc3oc(=O)c4[nH]c(=O)c(=O)n(C)c4c3c2)cc1 | inconclusive: 7.08 µM [inhibitor, full curve, poor fit] |  |
| C/C(=N/NC(=O)c1ccccc1)c1ccc(Cl)s1 |  | inactive: -9.34% |
| CCOC(=O)c1ccc(NS(=O)(=O)c2ccc(SC)cc2)cc1 |  | inactive: -16.1% |
| CN(C)S(=O)(=O)c1ccc(C(=O)NCCN=C2NS(=O)(=O)c3ccccc32)cc1 |  | inactive: 1.56% |
| CCCCN=C(Nc1ccc(Cl)cc1)c1cccnc1 |  | inactive: 0% |
| COCCOCC(=O)N1CC(Oc2ccc(-c3noc(-c4ccccc4)n3)cc2)C1 | inconclusive: 44.7 µM [inhibitor, partial curve] |  |
| CC1CN(CCc2ccccc2)c2nc3c(c(=O)[nH]c(=O)n3C)n2C1 (configuration not stated) |  | inactive: 3.23% |
| Nc1c(C(=O)NCc2ccccc2)nnn1Cc1ccccc1 | inconclusive: 112 µM [inhibitor, single point] |  |
| CCCC1(C(=O)OC)NC(c2ccc(OC)c(OC)c2)C2C(=O)N(c3ccc4c(c3)OCO4)C(=O)C21 (configuration not stated) |  | inactive: 0% |
| CCOC(=O)c1ccccc1NC(=O)CSc1nc2ncccc2o1 |  | inactive: -0.726% |
| CC[C@]12c3[nH]c4ccccc4c3CCN1C(=O)C(CC(=O)NCCc1ccccn1)C[C@@H]2C(=O)N1CCN(C(=O)c2ccco2)CC1 (some centres not stated) |  | inactive: -2.57% |
| CCCN(CCC)Cc1cc(=O)oc2cc(C)cc(C)c12 | inconclusive: 79.4 µM [inhibitor, partial curve, poor fit] |  |
| COc1cccc(C(=O)COC(=O)C2C3CC4C(OC(=O)C42)C3Br)c1 (configuration not stated) | inconclusive: 28.2 µM [inhibitor, single point] |  |
| COCC(=O)N(C)C[C@H]1N[C@@](C)(C(=O)OC)[C@H]2C(=O)N(C)C(=O)[C@@H]12 | inconclusive: 12.6 µM [inhibitor, partial curve, poor fit] |  |
| CC1(C)CC(=O)C=C(c2ccc3[nH]ccc3c2)C1 | inconclusive: 14.1 µM [inhibitor, partial curve, poor fit] |  |
| CCC(C)NC(=O)c1cn(CC)c2ccc(S(=O)(=O)N3CCCCC3)cc2c1=O (configuration not stated) | inactive and inconclusive: 3.55 µM [inhibitor, full curve] |  |
| O=C(CN(C(=O)c1csnn1)c1ccccc1)NCCc1ccccc1 | inconclusive: 0.178 µM [inhibitor, full curve, poor fit] |  |
| CCOC(=O)C1=C(c2ccccc2)NC(=S)NC1C (configuration not stated) | inconclusive: 50.1 µM [inhibitor, partial curve, poor fit] |  |

Filtered by structure: the entries above containing a Cl atom (7)

| SMILES | Potency | activity change, negative = inhibition |
| --- | --- | --- |
| O=C(Nc1ccc(Cl)cc1Cl)c1cnn2c1CN(C(=O)c1ccccc1F)CC2 | inconclusive: 89.1 µM [inhibitor, single point] |  |
| CN(Cc1ccc(F)cc1)C(=O)c1cccc(Cl)c1 |  | inactive: 40.5% [at 176 µM] |
| O=C1CS(=O)(=O)C2(C(=O)N(Cc3ccccc3F)c3ccccc32)N1c1ccc(F)c(Cl)c1 (configuration not stated) | inconclusive: 50.1 µM [inhibitor, partial curve, poor fit] |  |
| C=Cn1cc[n+](CC(=O)c2ccc(Cl)c(Cl)c2)c1 | inconclusive: 89.1 µM [inhibitor, single point] |  |
| CC(=O)c1c(C)[nH]c(C(=O)OCC(=O)Nc2ccc(Cl)cc2[N+](=O)[O-])c1C |  | inactive: -0.761% |
| C/C(=N/NC(=O)c1ccccc1)c1ccc(Cl)s1 |  | inactive: -9.34% |
| CCCCN=C(Nc1ccc(Cl)cc1)c1cccnc1 |  | inactive: 0% |
